For 1 molecule, EC50 results are on record in paper PMC11509758, “New Fusarochromanone Derivatives from the Marine Fungus Fusarium equiseti UBOCC-A-117302” (Marine Drugs, 2024).

The assay concerns hTERT RPE-1 cells. The following applies: read-out: EC50 (µM) RPE-1; 48 h incubation, doses up to 50 µM, MTS.

As to `CN[C@@H]1C[C@H]2O[C@@](C)([C@@H]1OC)n1c3ccccc3c3c4c(c5c6ccccc6n2c5c31)C(=O)NC4` [Staurosporine, reference compound], the EC50 is 1.9 µM.

A word on the EC50: it is the concentration needed to bring the measured effect to its halfway point.
